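A panel of P. falciparum strains inside erythrocytes is exposed to compounds for three days, then a DNA-binding dye reports the amount of parasite DNA.
Each compound was titrated across a series from about 0.000037 to 29 µM.
The number is the fitted AC50, the concentration giving a half-maximal change in signal; a lower value means higher potency, whether the curve shows a decrease or an increase.
Calls follow the curve class and fit quality: every row here is inconclusive, covering signal-raising curves and weak, poorly fitted, partial or highest-dose-only inhibition curves.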

Values are in nM.
Every entry below has the call inconclusive.
These entries are mostly ones the record files as inconclusive; other results of the assay are not listed here.
Potencies fitted to partial, single-point or poorly fitting curves are rough.

- CN(CCCN1c2ccccc2CCc2ccccc21)CC(=O)c1ccc(Cl)cc1 [CP191] : potency 12589 nM (inhibitor, single point)
- CN(CCCN1c2ccccc2CCc2ccccc21)CC(=O)c1ccc(Cl)cc1 [PC49] : potency 2818 nM (inhibitor, partial curve)
- CN(CCCN1c2ccccc2CCc2ccccc21)CC(=O)c1ccc(Cl)cc1 [CP325] : potency 10690 nM (inhibitor, partial curve, poor fit)
- CN(CCCN1c2ccccc2CCc2ccccc21)CC(=O)c1ccc(Cl)cc1 [CP185] : potency 12589 nM (inhibitor, single point)
- CN(CCCN1c2ccccc2CCc2ccccc21)CC(=O)c1ccc(Cl)cc1 [CP329] : potency 16944 nM (inhibitor, partial curve, poor fit)
- CN(CCCN1c2ccccc2CCc2ccccc21)CC(=O)c1ccc(Cl)cc1 [CP215] : potency 8492 nM (inhibitor, single point)
- CN(CCCN1c2ccccc2CCc2ccccc21)CC(=O)c1ccc(Cl)cc1 [CP250] : potency 17782 nM (inhibitor, single point)
- CN(CCCN1c2ccccc2CCc2ccccc21)CC(=O)c1ccc(Cl)cc1 [CP266] : potency 7569 nM (inhibitor, partial curve, poor fit)
- CN(CCCN1c2ccccc2CCc2ccccc21)CC(=O)c1ccc(Cl)cc1 [CP238] : potency 11220 nM (inhibitor, partial curve)
- CN(CCCN1c2ccccc2CCc2ccccc21)CC(=O)c1ccc(Cl)cc1 [PC26] : potency 8492 nM (inhibitor, partial curve)
- CN(CCCN1c2ccccc2CCc2ccccc21)CC(=O)c1ccc(Cl)cc1 [CP252] : potency 8912 nM (inhibitor, partial curve)
- CN(CCCN1c2ccccc2CCc2ccccc21)CC(=O)c1ccc(Cl)cc1 [3D7] : potency 10000 nM (inhibitor, single point)
- CN(CCCN1c2ccccc2CCc2ccccc21)CC(=O)c1ccc(Cl)cc1 [CP269] : potency 7569 nM (inhibitor, partial curve)
- O=C(CCN1CCN2CCCC2C1)N1c2ccccc2Sc2ccc(Cl)cc21 (centres undefined) [ATS189] : potency 5623 nM (inhibitor, partial curve)
- O=C(CCN1CCN2CCCC2C1)N1c2ccccc2Sc2ccc(Cl)cc21 (centres undefined) [CP237] : potency 8912 nM (inhibitor, partial curve)
- O=C(CCN1CCN2CCCC2C1)N1c2ccccc2Sc2ccc(Cl)cc21 (centres undefined) [CP269] : potency 6746 nM (inhibitor, partial curve, poor fit)
- O=C(CCN1CCN2CCCC2C1)N1c2ccccc2Sc2ccc(Cl)cc21 (centres undefined) [CP266] : potency 16.9 nM (inhibitor, full curve, poor fit)
- O=C(CCN1CCN2CCCC2C1)N1c2ccccc2Sc2ccc(Cl)cc21 (centres undefined) [N140] : potency 11220 nM (inhibitor, partial curve, poor fit)
- O=C(CCN1CCN2CCCC2C1)N1c2ccccc2Sc2ccc(Cl)cc21 (centres undefined) [TAB165] : potency 14125 nM (inhibitor, partial curve)
- O=C(CCN1CCN2CCCC2C1)N1c2ccccc2Sc2ccc(Cl)cc21 (centres undefined) [DIV30] : potency 9528 nM (inhibitor, partial curve)
- O=C(CCN1CCN2CCCC2C1)N1c2ccccc2Sc2ccc(Cl)cc21 (centres undefined) [C2A] : potency 10000 nM (inhibitor, partial curve)

Some entries from above, unchanged:

CN(CCCN1c2ccccc2CCc2ccccc21)CC(=O)c1ccc(Cl)cc1 [CP215] gave potency 8492 nM (inhibitor, single point).
CN(CCCN1c2ccccc2CCc2ccccc21)CC(=O)c1ccc(Cl)cc1 [CP325] gave potency 10690 nM (inhibitor, partial curve, poor fit).

Source: PubChem BioAssay AID504749 (NCATS, 2011).